Experimental data published in paper PMC10748395.
These are yes or no findings as the source states them, for the method shown. Some results given as binding are weak or reduced against the parent protein; the word gives no strength. Where a sequence is shown, tags or fusion partners need not be part of it.

Key:
Assay in all cases: two-hybrid; Gal4 system, vectors pGBT9 and pGAD10 or pGAD424, yeast reporter strain Y187, beta-galactosidase filter assay
[1] = biological target: T1, GIPC1 (GAIP C-Terminus-Interacting Protein PDZ Domain Containing Family, Member 1), full-length, yeast two-hybrid fusion (UniProt O14908)
T1 sequence: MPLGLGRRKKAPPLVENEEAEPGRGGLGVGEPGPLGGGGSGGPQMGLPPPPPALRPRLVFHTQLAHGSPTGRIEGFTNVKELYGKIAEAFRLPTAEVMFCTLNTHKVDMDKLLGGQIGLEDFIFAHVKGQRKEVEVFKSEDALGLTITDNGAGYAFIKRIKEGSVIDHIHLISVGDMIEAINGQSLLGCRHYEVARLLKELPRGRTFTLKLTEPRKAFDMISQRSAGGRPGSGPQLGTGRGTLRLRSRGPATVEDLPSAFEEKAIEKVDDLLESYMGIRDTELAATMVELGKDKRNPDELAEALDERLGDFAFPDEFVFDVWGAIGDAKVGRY

[2] = biological target: T2, human GIPC3, yeast two-hybrid fusion (human) (UniProt Q8TF64)
T2 sequence: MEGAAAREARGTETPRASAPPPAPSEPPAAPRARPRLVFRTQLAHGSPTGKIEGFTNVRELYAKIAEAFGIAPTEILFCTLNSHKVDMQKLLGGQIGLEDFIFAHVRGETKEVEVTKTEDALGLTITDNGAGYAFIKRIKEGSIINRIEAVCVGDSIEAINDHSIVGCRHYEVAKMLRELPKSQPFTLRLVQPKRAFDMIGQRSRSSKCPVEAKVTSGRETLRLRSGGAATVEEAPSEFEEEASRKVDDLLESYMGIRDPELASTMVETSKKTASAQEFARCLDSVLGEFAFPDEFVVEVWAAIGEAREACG

[3] = biological target: T3, human GIPC2, yeast two-hybrid fusion (human) (UniProt Q8TF65)
T3 sequence: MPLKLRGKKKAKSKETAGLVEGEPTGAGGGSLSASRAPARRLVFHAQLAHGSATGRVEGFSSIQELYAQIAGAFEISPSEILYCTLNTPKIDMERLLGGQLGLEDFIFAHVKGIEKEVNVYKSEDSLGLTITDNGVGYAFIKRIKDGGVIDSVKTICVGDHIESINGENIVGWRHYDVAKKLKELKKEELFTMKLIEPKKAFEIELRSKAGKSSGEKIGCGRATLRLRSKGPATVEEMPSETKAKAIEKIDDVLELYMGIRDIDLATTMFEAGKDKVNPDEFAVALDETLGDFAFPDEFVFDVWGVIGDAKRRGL

B1: SH3BP4 (SH3-domain binding protein 4), yeast two-hybrid fusion (protein, UniProt Q9JJS5 1-961)
chain: MAAQRIRAANSSGLPRCKSEGTLIDLSEGFSETSFNDVKVPSPSALLVDNPTPFGNAKEVIAIKDYCPNNFTTLKFSKGDHLYVLDTSGGEWWYAHNTTEMGYIPSSYVQPLNYRNSTLSDSGMIDNLPDSPDEVAKELDLLGGWTDDQKQSGRPYSNNPFWNGVRTNPFLNGNAQPSMDELNPKSTVDLLLFDTGTSSFTESSSATTNSTGNIFDELPATNGIHLEQPVKRDNPFFRSKRSYSLSELSVLQAKSDAPPTSSFFTGLKSPAPEQFQSREDFRTAWLNHRKLARSCHDLDLLGQSPGWGQTQAVETNIVCKLDSSGGSVQLPDTSISIHVPEGHVAPGETQQISMKALLDPPLDLNSDRSTSISPVVEVKLSNLEVSTFIILEMKVSAEVKGDIFSKSTVVLQCLRSDSKEGPYAPIPLAYSYGDTIQVQLDNLEPCMYLAIVAQGSNILYPSTVWDFIHKRVTVGLYGPKHIHPSFKTVVTIFGHDCAPKTLLVTEVTRQAPSPAPVALQLWGKHQFILSRPQDLRVCMFSNMTNYDVKSNEQAKVVRGFQMKLGKVSRLIFSVISQNPNELSDFTLRVQVKDDQDTILTQFCVQTPQPPPKSAIKPSGQRRFLKKNEVGKIILSPFVVTTKYPTFQDRPVSSLKFGKLLKTVVRQNKSHYLLEYKKGDVVALLSEERIRLKGQLWTKEWYIGYYQGKVGLVHTKNVLVVGKARPSLFSGPELSTSVLLEQILRPCKFLTYIYASVRTLLMENISSWRAFADALGYGNLPLTFFCRAELDSEPERVASVLEKLKEDCNNPDNKDRKSFQKELVMALLKMDCQGLVVRLIQDFVLLTTAVEVAQRWRELAEKLAKVSKQQMDAYESPHRDRNGVVDSEAMWKPAYDFLLTWSHQIGDSYRDVIQELHIGLDKMKNPITRRWKHLTGTLILVNSLDILRAAAFSPADHDDFVI
- binding [1]: binds
- binding [2]: no binding
- binding [3]: no binding
